PubChem BioAssay AID504804 – Drosophila RNAi Screening Center | 2011
The screen tested about 19,000 reagents; shown is a random part of those with a known target gene and a result. Over the whole deposit, 47 (0.25%) were called active. 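Signals are raw, not normalised; exact z-scores behind calls not deposited; actives needed confirmation, so some wells reaching 2 SD are inactive.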

Screen: 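Fly genes whose loss lessens doxorubicin-driven cell death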 (primary screen)
Cell system: Drosophila Kc cells
Reagent: long dsRNA against Drosophila genes, 0.5 µg dsRNA per well
Timing: 96 h (48 h knock-down, then 48 h drug)
Conditions: doxorubicin 5 µg/ml for 48 h, added 48 h after dsRNA
Detection: 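Viability measured as cellular ATP by luminescence after 48 h knock-down then 48 h doxorubicin at 5 µg/ml; unnormalised plate counts for each replicate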
Reading the numbers: raw ATP luminescence: higher = more viable cells, protection from doxorubicin
Hit rule: 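Active when both duplicate wells lie at least 2 SD above the plate mean and protection is confirmed by rescreening and independent dsRNAs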

Against Cpr67Fa2 [DRSC10315], the entry reads raw ATP luminescence, replicate 1 = 78653; raw ATP luminescence, replicate 2 = 77700; inactive.
Knock-down of CG15695 [DRSC15117] came out at: raw ATP luminescence, replicate 1 = 49770; raw ATP luminescence, replicate 2 = 64880; inactive.
Depletion of CG9673 [DRSC20202] came out at: raw ATP luminescence, replicate 1 = 2.99e5; raw ATP luminescence, replicate 2 = 2.77e5; inactive.
Against Pcf11 [DRSC05983], the values are raw ATP luminescence, replicate 1 = 34277; raw ATP luminescence, replicate 2 = 36427; inactive.
For mRpL50 [DRSC11015], the entry reads raw ATP luminescence, replicate 1 = 34033; raw ATP luminescence, replicate 2 = 40590; inactive.
Charon [DRSC00679] showed raw ATP luminescence, replicate 1 = 90280; raw ATP luminescence, replicate 2 = 60720; inactive.
Knock-down of CG42703 [DRSC03973] gave: raw ATP luminescence, replicate 1 = 85973; raw ATP luminescence, replicate 2 = 57533; inactive.

2 entries already listed, ordered by “raw ATP luminescence, replicate 1”, high to low:
Charon [DRSC00679] → raw ATP luminescence, replicate 1: 90280; raw ATP luminescence, replicate 2: 60720; activity call: inactive
mRpL50 [DRSC11015] → raw ATP luminescence, replicate 1: 34033; raw ATP luminescence, replicate 2: 40590; activity call: inactive

The list goes on.
Depletion of l(3)62Be (retired record) [DRSC08231] gave: raw ATP luminescence, replicate 1 = 52300; raw ATP luminescence, replicate 2 = 60000; inactive.
For hop [DRSC20340] the deposit lists raw ATP luminescence, replicate 1 = 2.80e5; raw ATP luminescence, replicate 2 = 2.81e5; inactive.
With knock-down of CG31365 [DRSC15610] the results were raw ATP luminescence, replicate 1 = 50807; raw ATP luminescence, replicate 2 = 37017; inactive.
COX7A [DRSC16514] showed raw ATP luminescence, replicate 1 = 55617; raw ATP luminescence, replicate 2 = 51557; inactive.
Clc [DRSC11116] scored raw ATP luminescence, replicate 1 = 53377; raw ATP luminescence, replicate 2 = 31210; inactive.
